Among the data in PMC2637609 are binding values, retold here.

No constants are given. Whether binding was seen depends on the method and setting. In cells and extracts the contact can be indirect. A result given as binding can be weak or reduced; the word gives no strength.

The target of test [1] is T1, Fibrillarin (Drosophila (endogenous in larvae)) (UniProt Q9W1V3).
T1 sequence: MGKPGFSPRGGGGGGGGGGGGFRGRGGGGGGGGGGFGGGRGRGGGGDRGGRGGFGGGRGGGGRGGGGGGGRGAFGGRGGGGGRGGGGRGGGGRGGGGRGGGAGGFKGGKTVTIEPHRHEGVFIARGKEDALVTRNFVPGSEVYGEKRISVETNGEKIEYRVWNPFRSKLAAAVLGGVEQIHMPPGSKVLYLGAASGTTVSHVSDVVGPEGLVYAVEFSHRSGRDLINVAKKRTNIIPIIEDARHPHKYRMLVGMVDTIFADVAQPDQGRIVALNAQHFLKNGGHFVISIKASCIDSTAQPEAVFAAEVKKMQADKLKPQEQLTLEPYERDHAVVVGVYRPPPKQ
Nature of the test: co-IP; rabbit anti-Fibrillarin antibody; extracts of Drosophila stock expressing PARPe-EGFP (wild type as negative control); Western blot with mouse anti-GFP. (Immunoblotting shows a protein as a band on a membrane.)

In test [2] the target is T2, Coilin (Drosophila (endogenous in larvae)) (UniProt A1Z7A8).
T2 sequence: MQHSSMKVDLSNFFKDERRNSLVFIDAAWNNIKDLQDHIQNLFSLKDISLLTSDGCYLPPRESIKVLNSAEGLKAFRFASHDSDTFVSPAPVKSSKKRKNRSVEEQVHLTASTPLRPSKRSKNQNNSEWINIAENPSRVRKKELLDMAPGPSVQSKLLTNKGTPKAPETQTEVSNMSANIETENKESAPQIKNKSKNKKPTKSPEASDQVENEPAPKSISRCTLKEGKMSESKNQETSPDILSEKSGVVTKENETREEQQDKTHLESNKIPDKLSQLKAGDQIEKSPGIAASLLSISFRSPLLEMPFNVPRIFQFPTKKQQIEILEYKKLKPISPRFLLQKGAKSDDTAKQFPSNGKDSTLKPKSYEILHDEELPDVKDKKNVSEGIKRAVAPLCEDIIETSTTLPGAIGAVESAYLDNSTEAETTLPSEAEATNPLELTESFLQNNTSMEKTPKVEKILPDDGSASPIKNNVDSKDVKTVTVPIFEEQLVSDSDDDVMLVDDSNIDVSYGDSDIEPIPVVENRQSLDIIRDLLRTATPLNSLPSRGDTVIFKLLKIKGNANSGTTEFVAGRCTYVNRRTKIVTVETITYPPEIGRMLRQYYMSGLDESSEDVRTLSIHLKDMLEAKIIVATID
Nature of the test: co-IP; guinea pig anti-Coilin antibody, Protein-G Sepharose; total protein extracts of Drosophila PARP1 mutant stock expressing PARP1-ECFP or PARPe-EGFP (wild type as control); Western blot.

The next test addresses PARPe-EGFP (Drosophila). Nature of the test: co-IP; rabbit anti-GFP antibody, Protein-G Sepharose; extracts of Drosophila stocks expressing PARP1-ECFP or PARPe-EGFP (wild type as control); Western blot.

As to PARPe-EGFP (Drosophila), the binding entry in test [1] and in test [2] was “binds” in each case.

B1: disk-large (Dlg) (protein, UniProt P31007 1-970)
chain: MPVKKQEAHRALELLEDYHARLSEPQDRALRIAIERVIRIFKSRLFQALLDIQEFYELTLLDDSKSIQQKTAETLQIATKWEKDGQAVKIADFIKSSNLNRNCAYEFNNDASSNQTNQSALNQNPIANNVSAQAQAEALSRTFKSELEEILNQRMRIESDTENAKEPTVEQQQKQQQAQQRSSRSPQQQNPQQQQGSKSRSGSQTVNGDDSWLYEDIQLERGNSGLGFSIAGGTDNPHIGTDTSIYITKLISGGAAAADGRLSINDIIVSVNDVSVVDVPHASAVDALKKAGNVVKLHVKRKRGTATTPAAGSAAGDARDSAASGPKVIEIDLVKGGKGLGFSIAGGIGNQHIPGDNGIYVTKLMDGGAAQVDGRLSIGDKLIAVRTNGSEKNLENVTHELAVATLKSITDKVTLIIGKTQHLTTSASGGGGGGLSSGQQLSQSQSQLATSQSQSQVHQQQHATPMVNSQSTEPGSRYASTNVLAAVPPGTPRAVSTEDITREPRTITIQKGPQGLGFNIVGGEDGQGIYVSFILAGGPADLGSELKRGDQLLSVNNVNLTHATHEEAAQALKTSGGVVTLLAQYRPEEYNRFEARIQELKQQAALGAGGSGTLLRTTQKRSLYVRALFDYDPNRDDGLPSRGLPFKHGDILHVTNASDDEWWQARRVLGDNEDEQIGIVPSKRRWERKMRARDRSVKFQGHAAANNNLDKQSTLDRKKKNFTFSRKFPFMKSRDEKNEDGSDQEPFMLCYTQDDANAEGASEENVLSYEAVQRLSINYTRPVIILGPLKDRINDDLISEYPDKFGSCVPHTTRPKREYEVDGRDYHFVSSREQMERDIQNHLFIEAGQYNDNLYGTSVASVREVAEKGKHCILDVSGNAIKRLQVAQLYPVAVFIKPKSVDSVMEMNRRMTEEQAKKTYERAIKMEQEFGEYFTGVVQGDTIEEIYSKVKSMIWSQSGPTIWVPSKESL
In the case of B1, the binding entry with PARPe-EGFP (Drosophila) was “no binding”.

B2: Coilin (protein, UniProt A1Z7A8 1-634)
chain: T2 sequence
Regarding B2, in the test with PARPe-EGFP (Drosophila), the binding entry was “binds”.
